# Experimental data published in patent US6339073B1, “Uses of nicotinamide adenine dinucleotide and its derivatives for treatment of malignant and infectious diseases” (Oxigene, Inc., priority 1997, dated 2002).
# “Also recorded” adds a separate entry of the source. At least one compound was matched to its structure with a doubt left.
# Legend:
# [1] = tested on: human lung adenocarcinoma (H2981) xenograft; experiment: Evaluation of antitumor activity of NAD in vivo; parameters: species or system Scid mice; conditions: 50 mg/kg i.p. daily Monday through Friday for 21 days
# Method: Evaluation of antitumor activity of NAD in vivo. Scid mice (n=10 per group) were transplanted by subcutaneous injection of H-2981 (human adenocarcinoma) tumor tissue suspension in the right flank. When the tumors grew to 80-100 mm2, the animals were divided into three groups: Group 1 was injected i.p. with saline, Group 2 was injected i.p. with NAD at 25 mg/kg dissolved in saline, and Group 3 was injected i.p. with NAD at 50 mg/kg. The treatment schedule was daily Monday through Friday with no treatment Saturday and Sunday for 21 days. Tumor volumes were recorded every other day for 21 days and converted to AUC tumor growth values as previously described in detail (Hua et al, Anti-Cancer Drugs 6: 451-455, 1995).
# [2] = tested on: 70Z/3 mouse preB/B tumor cells; experiment: Estimation of cycle arrest in 70Z/3 cells (propidium iodide flow cytometry); type: cell-based; conditions: 70Z/3 cells exposed to 300 μM NAD
# [3] = tested on: HL60 (human promyeloid leukemia line) cells; experiment: Measurement of in vitro cytotoxicity by apoptosis; type: cell-based
# Method: Cell culture. HL60 (human promyeloid leukemia line) cells were cultured at a density of 0.5×106 to 1.0×10^6 cells/ml in RPMI medium supplemented with 10% fetal calf serum (FCS) at 37° C. in a 5% CO2 atmosphere. The cells were harvested by centrifugation and resuspended in fresh medium at a concentration of 1×106 to 2×10^6 cells/ml for bioassay purposes.
# Measurement of in vitro cytotoxicity by apoptosis. HL60 cells were exposed in culture to 2 Gy radiation, 100 μM nMCA (neutral metoclopramide, Neu-Sensamide), 0-5000 μM NAD±10 mM, and±NADase inhibitor, 3-acetyl pyridine adenine dinucleotide, given 30 minutes before drug treatment. The % apoptosis was determined after 6 hours. The cytotoxicity was evaluated by morphological identification of apoptotic cells (400 ×magnification with phase contrast microscopy) using trypan blue exclusion (0.1% isotonic solution+5% serum) after 5 minutes incubation at room temperature. Apoptotic cells were identified as having chromatin condensation, shrinkage, membrane blebbing, fragmentation and appearance of “apoptotic bodies” (Kaufman et al, Cancer Res. 53:3976-3985, 1993).
smiles,measurement,setting,value
"NC(=O)c1ccc[n+]([C@@H]2O[C@H](COP(=O)([O-])OP(=O)(O)OC[C@H]3O[C@@H](n4cnc5c(N)ncnc54)[C@H](O)[C@@H]3O)[C@@H](O)[C@H]2O)c1 [NAD, nicotinamide adenine dinucleotide]",tumor growth (AUC tumor growth values) compared to untreated controls,[1],significant (p<0.05) reduction in tumor growth
same,cell cycle block (cells in S-phase),[2],appreciable accumulation of cells in S-phase
same,effect of NADase inhibitor on drug induced apoptosis,"[3]; 10 mM 3-acetyl pyridine adenine dinucleotide given 30 minutes before drug, 6 hours",striking inhibition of apoptosis; also recorded: this induction is inhibited
same,induction of apoptosis,"[3]; % apoptosis after 6 hours, without NADase inhibitor",dose dependent induction of apoptosis
